{"source": "paper PMC7349888", "about": "“Synthesis and Evaluation of Dodecaboranethiol Containing Kojic Acid (KA-BSH) as a Novel Agent for Boron Neutron Capture Therapy” (Cells, 2020)", "key": {"[1]": {"system": "F98 rat glioma cells", "assay": "Immunostaining of F98 cells (micro-distribution of boron compounds)", "format": "cell-based", "conditions": "2.0 mM, 24 h, anti-BSH A9H3 or anti-BPA 2B10 antibody"}, "[2]": {"system": "F98 glioma bearing rats", "assay": "In vivo BNCT therapeutic experiment, neutron irradiation at KURRI", "set-up": "species or system rat", "conditions": "iv, 1 h", "from_the_text": "All animal experimental procedures were approved by the Animal Use Review Board and Ethical Committee of Osaka Medical College (No. 25092, 28 October 2015) and Kyoto University Research Reactor Institute (KURRI, No. 25030-13, 1 April 2015), and performed following the Guide for the Care and Use of Laboratory Animals. Eight-week-old, male Fischer 344 rats weighing between 200 and 250 g were used (Japan SLC, Inc. Shizuoka, Japan). Rats were anesthetized with an intraperitoneal (ip) injection of a mixture of medetomidine 0.15 mg, midazolam 2 mg, and butorphanol 2.5 mg/kg body weight (bw). The head of each rat was fixed with a stereotactic frame (Model 900; David Kopf Instruments, Tujunga, CA, USA). The scalp was incised at the midline and a small burr hole was drilled into the skull (1 mm posterior and 4 mm right-lateral to the bregma), using an electric drill. And then, F98 glioma cells were injected into the brain using a 25 µL Hamilton microsyringe with a 26-gauge needle (model 1700 RN, Hamilton Bonaduz AG, Bonaduz, Switzerland). The needle was inserted at a 5 mm depth from the skull and F98 cells were diluted in 10 µL of DMEM containing low-gelling temperature agarose at a concentration of either 10^3 for therapeutic experiments or 10^5 cells for biodistribution experiments. They were injected over 30 s using an automatic infuser pump. The needle entry hole was immediately sealed with bone wax and the incised scalp was closed with 3-0 silk sutures (Ethicon, North Ryde, NSW). After surgery, all animals were given atipamezole hydrochloride (0.15 mg/kg bw, ip).\nTherapeutic experiments for BNCT were performed 14 days after stereotactic implantation of 10^3 F98 glioma cells. Rats were transported to the Nuclear Reactor Laboratory at KURRI. The rats were then randomized based on weight into experimental groups of 4–6 animals as follows: Group 1, KA-BSH administered iv and via neutron irradiation; Group 2, neutron irradiation only; Group 3, untreated control. All irradiated rats were anesthetized with a mixture of medetomidine (0.15 mg/kg bw), midazolam (2 mg/kg bw) and butorphanol (2.5 mg/kg bw). BNCT was initiated 1 h after termination of iv administration of KA-BSH (10 mg ^10B/kg bw). The rats were irradiated at a reactor power of 1 MW using the Heavy Water Neutron Irradiation Facility for 1 h. The therapeutic effect of BNCT was evaluated by the survival time of the animals. Radiation dose of BNCT experiments have been estimated using the same method as we have reported. The equivalent dose for KA-BSH cannot be estimated because the CBEB for KA-BSH is unknown.2.10. Statistical analysis\nThe means and standard deviations (SD) were computed for ^10B concentrations of F98 glioma cells and tissues of Fischer rats bearing intracerebral implants of the F98 glioma. Logistic regression was used to determine the significance of differences in cell viability. Statistical differences between means were calculated using the Student’s unpaired t-test. In therapeutic experiments, the median survival time (MST) was calculated for each group using the Kaplan–Meier estimate. Kaplan–Meier curves were also plotted for all groups. An overall log-rank test was performed to test for equality of survival curves between groups. Statistical analyses were performed using the software JMP 12 (SAS Institute Inc., Cary, NC, USA)."}, "[3]": {"conditions": "DB × CBEB + DN × RBEN + DH × RBEH + Dγ"}, "[4]": {"conditions": "estimated from 10B concentrations"}}, "data": [{"molecule": "N[C@@H](Cc1ccc(B(O)O)cc1)C(=O)O", "note": "[BPA, boronophenylalanine, reference compound]", "values": [{"measurement": "micro-distribution in F98 cells", "setting": "[1]", "result": "widely distributed in the cytoplasm and cell nuclei"}, {"measurement": "Equivalent Dose, Brain", "setting": "[2]; [3]", "result": 2.2, "unit": "Gy-eq"}, {"measurement": "Equivalent Dose, Tumor", "setting": "[2]; [3]", "result": 9.4, "unit": "Gy-eq"}, {"measurement": "Physical Radiation Dose, Brain", "setting": "[2]; [4]", "result": 1.3, "unit": "Gy"}]}, {"molecule": "S-(2-(5-hydroxy-4-oxo-4H-pyran-2-yl) methyl) Thioundecahydro-Closo- Dodecaborate (2-) Disodium Salt [KA-BSH]", "values": [{"measurement": "micro-distribution in F98 cells", "setting": "[1]", "result": "incorporated into the cell membrane of the F98 cells and aggregated on the fringe of the cell nuclei"}, {"measurement": "Physical Radiation Dose, Brain", "setting": "[2]; [4]", "result": 1.0, "unit": "Gy"}, {"measurement": "Physical Radiation Dose, Tumor", "setting": "[2]; [4]", "result": 1.1, "unit": "Gy"}]}, {"molecule": "dodecaboranethiol [BSH, reference compound]", "values": [{"measurement": "micro-distribution in F98 cells", "setting": "[1]", "result": "did not pass through the cell membrane"}]}]}
